# This is one part of the list. The main result of the screen is listed elsewhere. These columns were measured beside it and carry no call. Most of these compounds were active or inconclusive in the main read-out, so they are no random draw. The note in brackets gives the kind of curve behind each potency; many fits are weak.
# Assay: qHTS Assay for Lipid Storage Modulators in Drosophila S3 Cells;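 on cell number change: cells counted by Cell Tracker Red CMTPX staining in the red channel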
# Details: BODIPY lipid droplet fluorescence, 18-24 h; for cell number change: measured here: cell count max response, cells fed with added oleic acid
# Procedure, shortened: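 Drosophila S3 cells got compounds at several concentrations plus oleic acid (400 uM solution). Laser-scanning cytometry with 488 nm excitation read lipid droplets at 500-530 nm and cells at 575-640 nm. Percent activity was relative to 20 uM Triacsin C.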
# [1] = measured here: cell number channel AC50, cells fed with added oleic acid
# [2] = measured here: lipid fluorescence (Fed channel) AC50, cells fed with added oleic acid
Compound,cell number change [%],AC50 [1],AC50 [2]
Cc1cc(C)c(S(=O)(=O)Nc2nnc(C(C)C)s2)c(C)c1,15.8,–,–
COC(=O)c1ccc(CSc2nnc(-c3ccc4c(c3)OCO4)n2-c2ccccc2)o1,-2.6,–,–
CCOC(=O)c1cc(-c2ccc(/C=C3/C(=O)N(c4ccc(C(=O)O)cc4)N=C3C)o2)ccc1Cl,-30.6,"11.6 µM [falling, partial curve, poor fit]",–
O=C(CN(C1CCCCC1)S(=O)(=O)c1ccc(F)cc1)NC1CC1,-10.5,–,"0.164 µM [rising, full curve, poor fit]"
COc1cc2c(C(=O)OCCN(C)C)c(CSc3ccccc3)n(C)c2cc1Br,3.36,"3.66 µM [rising, single point]",–
CCOC(=O)/C(=C/c1cn(C)c2ccccc12)NC(=O)c1ccccc1,19.4,"1.84 µM [rising, partial curve]","1.64 µM [rising, partial curve]"
CS(=O)(=O)N1CCN=C1SCc1cccc(F)c1,4.25,–,"0.461 µM [rising, single point]"
CCOC(=O)c1c(C)[nH]c(C=O)c1Cc1cccc(Cl)c1,-27.2,"0.00411 µM [falling, full curve, poor fit]",–
COc1ccc(C(=O)N2CCc3ccc(NC(=O)c4ccccn4)cc3C2)cc1F,–,–,"1.84 µM [falling, full curve]"
N#Cc1nc(COc2cccc(Cl)c2)oc1NCc1ccco1,–,–,"0.13 µM [rising, single point]"
Cc1ccc(-n2nc(C(=O)O)cc2-c2ccccc2)cc1,-7.32,–,–
CN1CCN(C(=O)c2ccc(Cl)c(S(=O)(=O)N3CCCCC3)c2)CC1,-21.9,–,"23.1 µM [falling, single point]"
CC1(C)Oc2ccc(C(=O)N3CCCC3)cc2N(CC(=O)NCc2ccccc2)C1=O,74.3,"18.4 µM [rising, single point]",–
CCOC(=O)c1cnn(-c2ccccn2)c1N,-22.3,–,"0.92 µM [rising, full curve]"
CCn1cc(CNC(=O)c2cc(Cl)ccc2OC)c(C)n1,6.19,–,–
Cc1noc(C)c1CSc1nc2ccccc2c(=O)n1-c1ccc(Cl)cc1,128,"8.2 µM [rising, partial curve]","6.51 µM [rising, single point]"
O=C(c1ccc(F)cc1)N1CCN(c2cc(N3CCCCC3)c(F)cc2[N+](=O)[O-])CC1,–,"2.91 µM [rising, single point]","7.31 µM [rising, partial curve, poor fit]"
CCOc1ccc(CCNC(=O)C2CCN(c3nnc(-n4cccc4)s3)CC2)cc1OCC,3.17,–,"3.66 µM [rising, single point]"
COc1cc2cc(C[C@H](C)O)oc(=O)c2cc1OC,17.2,–,"0.164 µM [rising, full curve, poor fit]"
CCOC(=O)c1[nH]c2ccccc2c1NC(=S)Nc1ccccc1C,16.6,–,"0.0651 µM [rising, full curve, poor fit]"
O=C(O)c1ccc(CNCc2cccc(Cl)c2Cl)cc1,3.32,–,"0.651 µM [falling, partial curve]"

Compound,cell number change [%],AC50 [1],AC50 [2]
CN(C)S(=O)(=O)c1ccc(C(=O)NCC(c2cccs2)N2CCOCC2)cc1 (stereo not given),10.9,–,"29.1 µM [falling, single point]"
NCC1CC2c3ccccc3C1c1ccccc12 (stereo not given),-19.8,–,"4.61 µM [falling, full curve, poor fit]"
Cc1onc(-c2ccccc2Cl)c1C(=O)N[C@@H]1C(=O)N2[C@@H]1SC(C)(C)[C@@H]2C(=O)O,14.6,–,"29.1 µM [rising, single point]"
CC(/C=C/c1ccco1)=N/NC(=O)Cc1cccs1,-9.68,–,"3.66 µM [rising, single point]"
CC(CNC(=O)CN1C(=O)COc2ccc(S(=O)(=O)N3CCCCC3)cc21)c1ccccc1 (stereo not given),51.2,"20.6 µM [rising, partial curve, poor fit]","29.1 µM [rising, single point]"
COc1ccc(N2CCN(c3nc4c(c(=O)[nH]c(=O)n4C)n3Cc3cccc(C)c3)CC2)cc1,-2.89,"6.51 µM [rising, single point]","3.66 µM [rising, single point]"
Cc1ccc(-c2nnc(SCC(=O)N/N=C/c3c(C)nn(-c4ccccc4)c3C)n2-c2ccc(C)cc2)cc1,17.4,–,"20.6 µM [rising, partial curve]"
COC(=O)c1nnn(-c2nonc2N)c1CSc1ccc(Cl)cc1,-20.6,–,"0.291 µM [rising, full curve]"
CC(Sc1ccccn1)C(=O)Nc1ccc2c(c1)OCCO2 (stereo not given),0.803,–,"1.03 µM [rising, full curve]"
CCn1cc(Br)c(C(=O)N(C)Cc2ccccc2)n1,-6.56,–,"0.13 µM [falling, full curve, poor fit]"
CCOC(=O)N1CCN(C(=O)C2CCN(S(=O)(=O)N(CC)CC)CC2)CC1,-7.92,–,"6.51 µM [falling, single point]"
O=C(/C=C/c1ccc(-c2ccccc2[N+](=O)[O-])o1)c1ccc(Br)cc1,69.8,"13 µM [rising, partial curve]","6.51 µM [rising, single point]"
CCOC(=O)c1c(C)[nH]c(N=Nc2ccc(C)cc2C)c1C,-70.7,–,–
CC1(c2ccc(C#N)cc2)NC(=O)N(CC(=O)Nc2cc(S(=O)(=O)N3CCOCC3)ccc2Cl)C1=O (stereo not given),49.1,–,–
CC1(C)Cc2cccc(OCC(=O)N3CCN(S(=O)(=O)c4ccc(F)cc4)CC3)c2O1,0.467,–,–
CN(CC(=O)NCc1ccccn1)S(=O)(=O)c1ccccc1,144,–,–
CC(C)c1cc(N2CCN(C(=O)c3ccco3)CC2)n2c(nc3ccccc32)c1C#N,–,"0.411 µM [rising, full curve]","0.291 µM [rising, partial curve, poor fit]"
COc1nnc(-c2ccc(N3CCCCC3)c(NC(=O)C3CCCCC3)c2)c2ccccc12,-12.1,"1.46 µM [rising, partial curve]","0.58 µM [rising, single point]"
Cc1oc2cc3oc(=O)c(CCC(=O)NCCCC(=O)O)c(C)c3cc2c1C,43.1,–,–
CN1C2=NCCN2C(=O)c2ccccc21,23.3,–,–
NS(=O)(=O)c1ccc(CNC(=O)c2csc3c2CCCC3)cc1,-9.41,–,"0.366 µM [falling, full curve, poor fit]"

# Taken from above:
# cell number change [%], CC1(c2ccc(C#N)cc2)NC(=O)N(CC(=O)Nc2cc(S(=O)(=O)N3CCOCC3)ccc2Cl)C1=O (stereo not given) reads 49.1
# cell number change [%], COc1ccc(N2CCN(c3nc4c(c(=O)[nH]c(=O)n4C)n3Cc3cccc(C)c3)CC2)cc1 reads -2.89
# cell number change [%], CN(CC(=O)NCc1ccccn1)S(=O)(=O)c1ccccc1 reads 144

# 2 compounds drawn at random from those above:
Compound,cell number change [%],AC50 [1],AC50 [2]
CC1(C)Cc2cccc(OCC(=O)N3CCN(S(=O)(=O)c4ccc(F)cc4)CC3)c2O1,0.467,–,–
NCC1CC2c3ccccc3C1c1ccccc12 (stereo not given),-19.8,–,"4.61 µM [falling, full curve, poor fit]"

# (more compounds)

Compound,cell number change [%],AC50 [1],AC50 [2]
O=C(Nc1ccc2c(c1)OCO2)C1CCN(Cc2cc3c(cc2O)OCO3)CC1,13.3,–,–
C=CCOc1ccc(C2C3=C(CCCC3=O)N(CC(=O)O)C3=C2C(=O)CCC3)cc1OCC,11.5,–,"29.1 µM [rising, single point]"
COc1ccc(NC(=O)N2CCCC2C(=O)Nc2ccc(C)cc2)cc1 (stereo not given),45.5,"13 µM [rising, partial curve, poor fit]","25.9 µM [rising, partial curve, poor fit]"
CC(C)Cc1nnc(NC(=O)CSc2nc(O)c(Cc3ccccc3)c(=O)[nH]2)s1,-29,–,–
COc1ccc2c(c1)CC1c3c(cc4c(c3-2)OCO4)CC[N+]1(C)[O-] (stereo not given),19.7,–,"32.6 µM [rising, single point]"
O=C(Nc1cccc(C(F)(F)F)c1)N(Cc1ccc(Cl)cc1)CC(O)C(F)(F)F (stereo not given),-75.3,"14.6 µM [falling, partial curve]","20.6 µM [falling, single point]"
CCCCSc1nc2sc3c(c2c(=O)n1-c1ccccc1)CCN(C)C3,41.7,–,–
C#CCOCCOCCOCCNc1nc(N2CCOCC2)nc(N2CCN(C(=O)[C@H](Cc3cc4ccccc4[nH]3)n3cc([C@@H](N)CC(C)C)nn3)CC2)n1,14.4,–,"6.51 µM [rising, single point]"
CCC(C(=O)O)n1nnc(-c2ccc(-c3ccc(OC)cc3)cc2)n1 (stereo not given),6.9,–,"4.61 µM [falling, single point]"
COc1ccc(-c2nn3c(COc4ccccc4)nnc3s2)cc1OC,-1.44,–,"6.51 µM [rising, single point]"
Cn1cccc1C(=O)Nc1nccs1,19.9,–,"9.2 µM [rising, single point]"
CC(NC(=O)c1ccncc1)C(C)(C)C (stereo not given),-37.5,"5.8 µM [falling, full curve]","14.6 µM [falling, partial curve]"
CC(=O)NS(=O)(=O)c1ccc(NC(=O)c2ccc(NC(=O)c3cccs3)cc2)cc1,6.46,–,"0.164 µM [falling, full curve, poor fit]"
CC(=O)c1ccc(NC(=O)CSc2ccc(-c3sc(C)nc3C)nn2)cc1,20.9,–,"1.46 µM [rising, full curve, poor fit]"
O=S(=O)(N/N=C\c1ccc2c(c1)OCO2)c1ccc(Cl)cc1,-26.2,–,"29.1 µM [falling, single point]"
Nc1ccc(C(=O)OCc2csc(-c3ccccc3)n2)cc1[N+](=O)[O-],-4.05,–,"16.4 µM [falling, single point]"
CCOC(=O)c1cc(-c2ccc(Cl)cc2)nc2c1c(C)nn2CCC#N,-21.1,–,–
COc1ccc(C=C(C#N)C#N)c(CSc2ccccn2)c1,-8.11,–,"16.4 µM [falling, single point]"
COc1ccc(Cl)cc1NC(=O)CN(C)C(=O)C12CC3CC(CC(Cl)(C3)C1)C2,-8.5,–,"29.1 µM [rising, single point]"
